According to the supplement of paper PMC10849652:
This is one part of the list.

Sequences of proteins named here, by UniProt entry; tags and fusion partners are left off. A change or cut given only in a name is not applied to a line headed by its entry.
UniProt O43759: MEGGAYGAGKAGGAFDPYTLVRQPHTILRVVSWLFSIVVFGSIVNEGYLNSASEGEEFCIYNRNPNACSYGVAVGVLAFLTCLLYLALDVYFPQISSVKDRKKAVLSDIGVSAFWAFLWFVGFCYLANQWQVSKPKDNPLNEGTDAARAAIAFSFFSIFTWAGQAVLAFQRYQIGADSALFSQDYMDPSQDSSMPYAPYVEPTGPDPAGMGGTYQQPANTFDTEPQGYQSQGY
UniProt Q9H6P5: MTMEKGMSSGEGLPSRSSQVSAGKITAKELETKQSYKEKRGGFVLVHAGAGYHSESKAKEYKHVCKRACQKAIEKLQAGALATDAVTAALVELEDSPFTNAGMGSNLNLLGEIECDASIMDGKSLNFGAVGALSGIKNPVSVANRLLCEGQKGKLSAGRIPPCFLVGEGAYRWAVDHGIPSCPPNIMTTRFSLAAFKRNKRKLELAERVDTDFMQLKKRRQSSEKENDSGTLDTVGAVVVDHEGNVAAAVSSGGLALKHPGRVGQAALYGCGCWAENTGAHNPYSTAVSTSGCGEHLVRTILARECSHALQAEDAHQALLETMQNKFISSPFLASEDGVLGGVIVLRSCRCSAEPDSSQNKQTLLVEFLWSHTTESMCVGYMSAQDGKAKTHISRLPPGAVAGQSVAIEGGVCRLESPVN
UniProt O15533, whole entry, looked up: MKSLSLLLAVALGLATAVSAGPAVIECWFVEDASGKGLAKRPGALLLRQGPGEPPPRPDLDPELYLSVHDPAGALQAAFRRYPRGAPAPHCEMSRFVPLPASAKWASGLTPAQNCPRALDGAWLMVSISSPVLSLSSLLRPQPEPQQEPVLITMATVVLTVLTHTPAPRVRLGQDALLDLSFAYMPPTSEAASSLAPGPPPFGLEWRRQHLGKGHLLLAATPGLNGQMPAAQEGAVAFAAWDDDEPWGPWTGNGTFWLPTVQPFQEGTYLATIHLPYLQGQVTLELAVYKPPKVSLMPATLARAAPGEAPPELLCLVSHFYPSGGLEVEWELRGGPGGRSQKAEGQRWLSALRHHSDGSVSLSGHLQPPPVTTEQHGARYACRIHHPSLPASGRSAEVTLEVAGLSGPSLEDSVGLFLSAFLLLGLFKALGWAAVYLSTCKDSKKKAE
UniProt Q9Y2Z0: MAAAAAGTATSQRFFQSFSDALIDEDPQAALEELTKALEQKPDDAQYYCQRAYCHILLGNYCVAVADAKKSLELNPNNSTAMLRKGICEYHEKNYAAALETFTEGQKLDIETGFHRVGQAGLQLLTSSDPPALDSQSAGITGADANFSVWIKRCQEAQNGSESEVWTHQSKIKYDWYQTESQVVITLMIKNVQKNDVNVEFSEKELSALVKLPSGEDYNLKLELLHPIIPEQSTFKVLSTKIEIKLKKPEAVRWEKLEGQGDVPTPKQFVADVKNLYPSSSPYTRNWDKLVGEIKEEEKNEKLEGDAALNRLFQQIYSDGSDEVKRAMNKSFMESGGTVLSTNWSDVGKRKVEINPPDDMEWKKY
UniProt Q9NRP7: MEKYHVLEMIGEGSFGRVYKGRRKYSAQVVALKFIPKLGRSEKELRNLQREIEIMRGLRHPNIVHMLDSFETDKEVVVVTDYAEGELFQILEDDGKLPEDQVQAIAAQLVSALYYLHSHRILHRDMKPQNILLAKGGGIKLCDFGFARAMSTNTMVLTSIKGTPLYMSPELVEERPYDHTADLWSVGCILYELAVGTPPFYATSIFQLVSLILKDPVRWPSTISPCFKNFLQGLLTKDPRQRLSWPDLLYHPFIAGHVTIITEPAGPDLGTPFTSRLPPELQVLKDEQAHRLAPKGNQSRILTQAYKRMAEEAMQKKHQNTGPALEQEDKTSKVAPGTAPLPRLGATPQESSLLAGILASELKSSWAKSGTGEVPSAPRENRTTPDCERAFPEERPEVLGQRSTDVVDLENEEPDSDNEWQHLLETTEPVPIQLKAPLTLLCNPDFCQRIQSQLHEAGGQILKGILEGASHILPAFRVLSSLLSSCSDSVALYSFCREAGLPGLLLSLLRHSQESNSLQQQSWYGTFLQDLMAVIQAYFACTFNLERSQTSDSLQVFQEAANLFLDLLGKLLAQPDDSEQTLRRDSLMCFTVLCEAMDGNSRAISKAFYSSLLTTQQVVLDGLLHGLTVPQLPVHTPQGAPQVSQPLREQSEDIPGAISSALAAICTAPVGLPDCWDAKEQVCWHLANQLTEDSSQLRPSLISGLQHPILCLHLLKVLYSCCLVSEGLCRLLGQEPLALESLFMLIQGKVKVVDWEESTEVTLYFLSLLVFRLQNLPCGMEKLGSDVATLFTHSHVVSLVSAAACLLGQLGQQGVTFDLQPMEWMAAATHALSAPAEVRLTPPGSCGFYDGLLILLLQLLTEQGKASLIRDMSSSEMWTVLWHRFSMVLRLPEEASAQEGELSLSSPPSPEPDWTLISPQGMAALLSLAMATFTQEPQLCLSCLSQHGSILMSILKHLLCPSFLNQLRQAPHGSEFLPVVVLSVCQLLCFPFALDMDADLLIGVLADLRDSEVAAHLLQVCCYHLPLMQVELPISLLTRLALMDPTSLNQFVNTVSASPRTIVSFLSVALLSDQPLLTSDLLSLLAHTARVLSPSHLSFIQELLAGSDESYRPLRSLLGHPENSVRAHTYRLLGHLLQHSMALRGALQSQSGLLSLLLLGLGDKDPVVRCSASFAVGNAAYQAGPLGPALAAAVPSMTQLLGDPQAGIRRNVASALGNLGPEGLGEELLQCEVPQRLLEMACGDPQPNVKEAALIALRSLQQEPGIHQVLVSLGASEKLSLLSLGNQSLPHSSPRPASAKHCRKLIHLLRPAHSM
UniProt P49888: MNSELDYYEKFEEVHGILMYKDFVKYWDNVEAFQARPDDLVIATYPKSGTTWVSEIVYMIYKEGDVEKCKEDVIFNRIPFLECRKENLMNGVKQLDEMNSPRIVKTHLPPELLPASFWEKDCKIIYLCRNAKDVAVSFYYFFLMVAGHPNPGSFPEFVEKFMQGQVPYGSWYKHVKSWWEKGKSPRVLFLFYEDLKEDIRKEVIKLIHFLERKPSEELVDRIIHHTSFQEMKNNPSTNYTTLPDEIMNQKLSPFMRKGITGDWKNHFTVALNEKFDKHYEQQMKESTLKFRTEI
UniProt Q8TDR2: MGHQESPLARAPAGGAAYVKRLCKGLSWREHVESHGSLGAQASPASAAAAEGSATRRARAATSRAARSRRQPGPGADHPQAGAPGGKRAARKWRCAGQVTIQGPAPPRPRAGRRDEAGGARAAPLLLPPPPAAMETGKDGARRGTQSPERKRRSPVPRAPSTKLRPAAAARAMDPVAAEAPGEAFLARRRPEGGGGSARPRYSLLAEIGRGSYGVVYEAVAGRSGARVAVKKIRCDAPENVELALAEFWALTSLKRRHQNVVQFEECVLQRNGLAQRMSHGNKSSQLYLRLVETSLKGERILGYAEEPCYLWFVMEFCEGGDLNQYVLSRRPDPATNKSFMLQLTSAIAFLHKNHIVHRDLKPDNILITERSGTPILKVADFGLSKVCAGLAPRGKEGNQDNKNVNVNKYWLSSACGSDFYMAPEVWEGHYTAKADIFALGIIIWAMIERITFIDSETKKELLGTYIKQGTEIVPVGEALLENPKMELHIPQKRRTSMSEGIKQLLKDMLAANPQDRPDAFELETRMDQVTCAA
UniProt Q96BN2: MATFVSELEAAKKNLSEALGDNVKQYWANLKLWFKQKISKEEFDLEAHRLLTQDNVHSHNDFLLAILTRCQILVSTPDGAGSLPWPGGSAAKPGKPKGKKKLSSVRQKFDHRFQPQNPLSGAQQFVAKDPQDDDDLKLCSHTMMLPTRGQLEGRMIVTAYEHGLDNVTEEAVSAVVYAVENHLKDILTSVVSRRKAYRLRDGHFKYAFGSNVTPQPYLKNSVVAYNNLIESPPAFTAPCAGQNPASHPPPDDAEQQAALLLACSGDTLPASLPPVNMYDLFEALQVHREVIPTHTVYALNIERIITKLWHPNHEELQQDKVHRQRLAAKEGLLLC
UniProt Q16514: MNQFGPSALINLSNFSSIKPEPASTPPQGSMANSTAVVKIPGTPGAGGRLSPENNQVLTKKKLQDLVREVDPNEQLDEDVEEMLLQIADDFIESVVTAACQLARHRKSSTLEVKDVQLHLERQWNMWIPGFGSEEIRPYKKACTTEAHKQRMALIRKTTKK
UniProt Q9UMX1: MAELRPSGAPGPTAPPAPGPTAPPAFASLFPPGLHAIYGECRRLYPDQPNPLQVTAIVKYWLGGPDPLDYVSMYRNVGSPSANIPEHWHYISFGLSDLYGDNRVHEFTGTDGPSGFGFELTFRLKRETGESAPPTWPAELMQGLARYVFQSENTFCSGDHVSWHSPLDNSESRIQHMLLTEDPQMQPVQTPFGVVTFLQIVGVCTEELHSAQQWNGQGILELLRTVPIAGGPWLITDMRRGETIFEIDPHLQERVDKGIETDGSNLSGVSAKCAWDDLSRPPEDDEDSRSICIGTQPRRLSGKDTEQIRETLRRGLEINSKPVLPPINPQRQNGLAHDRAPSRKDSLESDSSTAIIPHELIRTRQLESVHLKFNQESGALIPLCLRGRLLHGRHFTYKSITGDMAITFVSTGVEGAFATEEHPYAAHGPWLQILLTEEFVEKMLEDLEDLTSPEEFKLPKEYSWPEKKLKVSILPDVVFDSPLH
UniProt Q8NHG7: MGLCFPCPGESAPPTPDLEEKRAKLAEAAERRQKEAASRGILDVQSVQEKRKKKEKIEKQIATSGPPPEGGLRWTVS
UniProt Q01995: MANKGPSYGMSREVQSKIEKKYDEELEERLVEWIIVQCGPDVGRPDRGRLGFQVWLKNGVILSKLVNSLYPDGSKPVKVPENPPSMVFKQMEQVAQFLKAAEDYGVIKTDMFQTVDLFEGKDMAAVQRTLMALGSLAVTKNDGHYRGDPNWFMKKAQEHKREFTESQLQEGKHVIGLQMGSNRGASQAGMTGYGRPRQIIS
UniProt Q6UWL2: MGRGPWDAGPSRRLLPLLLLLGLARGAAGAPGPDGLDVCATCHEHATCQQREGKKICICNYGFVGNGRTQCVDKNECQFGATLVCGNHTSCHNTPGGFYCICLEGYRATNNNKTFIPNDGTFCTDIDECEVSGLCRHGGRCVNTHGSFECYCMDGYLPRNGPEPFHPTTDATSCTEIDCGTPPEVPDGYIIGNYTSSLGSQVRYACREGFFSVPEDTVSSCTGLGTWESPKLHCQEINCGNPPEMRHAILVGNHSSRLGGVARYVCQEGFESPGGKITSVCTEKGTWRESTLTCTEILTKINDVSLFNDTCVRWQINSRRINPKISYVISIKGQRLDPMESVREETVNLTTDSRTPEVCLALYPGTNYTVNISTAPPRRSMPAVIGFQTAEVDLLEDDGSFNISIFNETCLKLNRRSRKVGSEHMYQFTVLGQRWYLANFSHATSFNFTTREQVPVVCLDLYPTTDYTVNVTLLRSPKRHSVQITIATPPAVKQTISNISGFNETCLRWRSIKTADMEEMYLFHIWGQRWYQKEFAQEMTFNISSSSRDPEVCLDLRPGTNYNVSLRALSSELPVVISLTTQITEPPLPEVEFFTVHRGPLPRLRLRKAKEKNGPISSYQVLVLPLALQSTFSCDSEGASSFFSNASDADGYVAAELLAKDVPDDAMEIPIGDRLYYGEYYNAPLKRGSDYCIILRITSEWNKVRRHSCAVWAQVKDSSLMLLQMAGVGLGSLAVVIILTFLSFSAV
UniProt Q8N2H4: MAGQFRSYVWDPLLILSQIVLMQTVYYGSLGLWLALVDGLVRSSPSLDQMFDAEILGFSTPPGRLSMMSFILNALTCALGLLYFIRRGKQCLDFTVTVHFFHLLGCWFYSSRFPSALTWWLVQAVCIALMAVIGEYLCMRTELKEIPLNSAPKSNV
UniProt Q13188: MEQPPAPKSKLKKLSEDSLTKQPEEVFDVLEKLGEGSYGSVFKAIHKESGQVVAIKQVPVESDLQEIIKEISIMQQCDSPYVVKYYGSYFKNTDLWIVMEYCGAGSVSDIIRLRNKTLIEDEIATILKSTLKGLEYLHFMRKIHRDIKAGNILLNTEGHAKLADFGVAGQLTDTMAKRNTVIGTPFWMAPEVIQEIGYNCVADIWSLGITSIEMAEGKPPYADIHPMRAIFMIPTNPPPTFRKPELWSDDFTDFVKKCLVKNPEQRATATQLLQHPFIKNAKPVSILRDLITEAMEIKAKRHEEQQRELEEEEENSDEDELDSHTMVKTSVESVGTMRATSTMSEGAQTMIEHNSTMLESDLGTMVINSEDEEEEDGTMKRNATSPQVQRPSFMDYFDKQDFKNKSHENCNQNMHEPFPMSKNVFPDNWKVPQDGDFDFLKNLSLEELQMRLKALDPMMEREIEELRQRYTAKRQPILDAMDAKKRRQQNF
UniProt Q6P1N9: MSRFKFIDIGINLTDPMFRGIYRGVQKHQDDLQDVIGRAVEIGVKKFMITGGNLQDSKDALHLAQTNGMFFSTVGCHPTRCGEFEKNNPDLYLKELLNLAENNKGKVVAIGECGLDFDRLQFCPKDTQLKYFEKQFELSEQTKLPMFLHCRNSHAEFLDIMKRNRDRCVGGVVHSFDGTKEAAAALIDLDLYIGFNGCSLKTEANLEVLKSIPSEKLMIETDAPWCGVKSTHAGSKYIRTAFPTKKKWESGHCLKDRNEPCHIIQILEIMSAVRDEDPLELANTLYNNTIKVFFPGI

Key:
Test in all cases: log2 fold change, soluble protein after heating vs DMSO (PISA); higher = thermal stabilisation; K562 cells, 10 uM, 30 min; active = over 0.2 and 3.5 SD of the protein, either way, in both replicates (recomputed)
sotrastaurin = compound: CN1CCN(c2nc(C3=C(c4c[nH]c5ccccc45)C(=O)NC3=O)c3ccccc3n2)CC1 [sotrastaurin]
Summary of the method: (§1)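 Thermal stability values are relative to control samples and come from duplicates. They are expressed as log2 fold changes. For measurement, K562 cells (2×10^6 cells/mL) received 10 μM compound for 30 min, and aliquots were heated for 3 min over 48°C-58°C, pooled, and extracted at 4°C in PBS with 0.5% NP-40. Soluble protein, the supernatant after 21,000xg for 90 min, was quantified by TMTpro 16plex LC-MS/MS with equalised channel sums.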

Tubastatin A = compound: CN1CCc2c(c3ccccc3n2Cc2ccc(C(=O)NO)cc2)C1 [Tubastatin A]
Summary of the method: as §1

[1] = compound: CNC(=O)C1=CC=CC=C1NC2=NC(=NC=C2Cl)NC3=C(C=C(C=C3)N4CCOCC4)OC
Summary of the method: as §1

defactinib = compound: CNC(=O)c1ccc(Nc2ncc(C(F)(F)F)c(NCc3nccnc3N(C)S(C)(=O)=O)n2)cc1 [defactinib]
Summary of the method: as §1

[2] = compound: COC(=O)[C@H](CCSC)NC(=O)C1=C(C=C(C=C1)NC[C@H](CS)N)C2=CC=CC=C2
Summary of the method: as §1

[3] = compound: COC1=CC=C(C=C1)CN2C=CC3=C2C=C(C=C3)C(=O)NO
Summary of the method: as §1

filanesib = compound: CON(C)C(=O)N1N=C(c2cc(F)ccc2F)S[C@@]1(CCCN)c1ccccc1 [filanesib]
Summary of the method: as §1

idasanutlin = compound: COc1cc(C(=O)O)ccc1NC(=O)[C@@H]1N[C@@H](CC(C)(C)C)[C@](C#N)(c2ccc(Cl)cc2F)[C@H]1c1cccc(Cl)c1F [idasanutlin]
Summary of the method: as §1

alisertib = compound: COc1cc(Nc2ncc3c(n2)-c2ccc(Cl)cc2C(c2c(F)cccc2OC)=NC3)ccc1C(=O)O [alisertib]
Summary of the method: as §1

[4] = compound: COc1cc2nc(-c3cc(F)ccc3O)nc(N[C@@H]3CNC[C@H]3C(C)(C)O)c2cc1OC
Summary of the method: as §1

[5] = compound: COc1cccc2cc(-c3nc([C@H]4CC[C@H](C(=O)O)CC4)n4ncnc(N)c34)[nH]c12
Summary of the method: as §1

lapatinib = compound: CS(=O)(=O)CCNCc1ccc(-c2ccc3ncnc(Nc4ccc(OCc5cccc(F)c5)c(Cl)c4)c3c2)o1 [lapatinib]
Summary of the method: as §1

pictilisib = compound: CS(=O)(=O)N1CCN(Cc2cc3nc(-c4cccc5[nH]ncc45)nc(N4CCOCC4)c3s2)CC1 [pictilisib]
Summary of the method: as §1

saracatinib = compound: CN1CCN(CCOc2cc(OC3CCOCC3)c3c(Nc4c(Cl)ccc5c4OCO5)ncnc3c2)CC1 [saracatinib]
Summary of the method: as §1

alvocidib = compound: CN1CC[C@H](c2c(O)cc(O)c3c(=O)cc(-c4ccccc4Cl)oc23)[C@H](O)C1 [alvocidib]
Summary of the method: as §1

rucaparib = compound: CNCc1ccc(-c2[nH]c3cc(F)cc4c3c2CCNC4=O)cc1 [rucaparib]
Summary of the method: as §1

[6] = compound: CNc1nc(-c2ccc3c(N)n[nH]c3c2)cc(N2C[C@@H](C(=O)NC3CCCCC3)CC[C@H]2C)n1
Summary of the method: as §1

encorafenib = compound: COC(=O)N[C@@H](C)CNc1nccc(-c2cn(C(C)C)nc2-c2cc(Cl)cc(NS(C)(=O)=O)c2F)n1 [encorafenib]
Summary of the method: as §1

zotarolimus = compound: CO[C@H]1C[C@@H]2CC[C@@H](C)[C@@](O)(O2)C(=O)C(=O)N2CCCC[C@H]2C(=O)O[C@H]([C@H](C)C[C@@H]2CC[C@H](n3cnnn3)[C@H](OC)C2)CC(=O)[C@H](C)/C=C(\C)[C@@H](O)[C@@H](OC)C(=O)[C@H](C)C[C@H](C)/C=C/C=C/C=C/1C [zotarolimus]
Summary of the method: as §1

gefitinib = compound: COc1cc2ncnc(Nc3ccc(F)c(Cl)c3)c2cc1OCCCN1CCOCC1 [gefitinib]
Summary of the method: as §1

Measured: log2 fold change

TAF4 (UniProt O00268)
inactive: sotrastaurin 0.021 | Tubastatin A 0.116 | [1] -0.135 | defactinib -0.044 | [2] -0.195 | [3] 0 | filanesib 0.182 | idasanutlin 0.047 | alisertib -0.27 | [4] 0.059 | [5] 0.08 | lapatinib 0.23 | pictilisib -0.02

SYP (UniProt P08247)
inactive: saracatinib 0.12 | alvocidib -0.04 | Tubastatin A 0.076 | [1] 0.031 | defactinib -0.005 | rucaparib -0.157 | [6] -0.018 | encorafenib 0.047 | [2] 0.046 | [3] -0.064 | zotarolimus -0.124 | idasanutlin 0 | alisertib -0.008 | [4] -0.013 | gefitinib 0.039 | [5] 0.129 | lapatinib -0.07 | pictilisib 0.016

STRN3 isoform 2 (UniProt Q13033)
inactive: alvocidib 0.019 | Tubastatin A -0.015 | [1] 0.102 | defactinib -0.004 | [2] -0.007 | [3] -0.01 | zotarolimus 0.019 | idasanutlin -0.194 | alisertib -0.081 | [4] -0.03 | gefitinib 0.031 | [5] -0.012 | lapatinib -0.019 | pictilisib 0.285

SYNGR1 isoform 3 (UniProt O43759)
inactive: Tubastatin A 0.138 | rucaparib -0.12 | encorafenib 0.236

TASP1 (UniProt Q9H6P5)
inactive: [1] -0.351 | alisertib 0.116 | gefitinib -0.179 | [5] -0.149

TAOK2 (UniProt Q9UL54)
inactive: Tubastatin A -0.003 | [1] 0.244 | rucaparib -0.012 | encorafenib -0.028 | [3] 0.189 | alisertib 0.107 | [4] -0.02 | gefitinib -0.095 | [5] 0.003 | lapatinib 0.022 | pictilisib 0.003

TAPBP isoform 3 (UniProt O15533)
inactive: sotrastaurin -0.164 | alvocidib 0.078 | Tubastatin A 0.098 | [1] 0.012 | defactinib -0.059 | rucaparib -0.053 | encorafenib 0.194 | [2] -0.143 | [3] 0.175 | filanesib -0.052 | zotarolimus 0.103 | idasanutlin 0.099 | alisertib 0.062 | [4] -0.116 | gefitinib -0.025 | [5] 0.024 | lapatinib 0.225 | pictilisib -0.176

STYX (UniProt Q8WUJ0)
inactive: saracatinib 0.119 | Tubastatin A 0.245 | [1] -0.057 | [6] -0.075 | pictilisib 0.121

SYNJ2 (UniProt O15056)
inactive: saracatinib 0.371 | sotrastaurin 0.065 | [1] 0.051 | defactinib -0.007 | [6] 0.363 | [2] -0.095 | [3] 0.038 | filanesib 0.09 | idasanutlin 0.025 | alisertib -0.031 | gefitinib 0.076 | [5] -0.18 | pictilisib -0.079

SUGT1 isoform 2 (UniProt Q9Y2Z0)
inactive: saracatinib 0.036 | Tubastatin A -0.002 | [1] 0.059 | defactinib -0.038 | rucaparib 0.079 | [6] -0.191 | encorafenib -0.125 | [2] -0.021 | [3] -0.151 | alisertib -0.011 | [4] 0.186 | [5] 0.137 | lapatinib 0.172

STK36 (UniProt Q9NRP7)
inactive: saracatinib -0.035 | [1] -0.438 | [6] 0.104 | idasanutlin 0.093 | alisertib -0.375 | [4] 0.42 | gefitinib 0.09 | [5] 0.039 | lapatinib -0.142 | pictilisib -0.043

SUPT5H isoform 2 (UniProt O00267)
inactive: defactinib -0.005 | [2] -0.058

STS (UniProt P08842)
inactive: rucaparib -0.151 | encorafenib -0.047 | idasanutlin 0.046 | [4] -0.099 | lapatinib -0.024

TAF5L (UniProt O75529)
inactive: rucaparib 0.115 | encorafenib 0.133

TAF13 (UniProt Q15543)
inactive: saracatinib -0.03 | sotrastaurin -0.081 | Tubastatin A 0.157 | defactinib -0.039 | [6] -0.036 | [2] 0.012 | filanesib 0.052 | alisertib -0.052 | [5] -0.017 | pictilisib 0.289

STON2 isoform 3 (UniProt Q8WXE9)
inactive: Tubastatin A -0.198 | rucaparib -0.026 | encorafenib 0.076 | [3] 0.001 | gefitinib -0.024 | pictilisib -0.025

SULT1E1 (UniProt P49888)
inactive: [1] 0.14 | gefitinib -0.102 | pictilisib -0.144

3 consecutive records from above:
STS (UniProt P08842)
inactive: rucaparib -0.151 | encorafenib -0.047 | idasanutlin 0.046 | [4] -0.099 | lapatinib -0.024

TAF5L (UniProt O75529)
inactive: rucaparib 0.115 | encorafenib 0.133

TAF13 (UniProt Q15543)
inactive: saracatinib -0.03 | sotrastaurin -0.081 | Tubastatin A 0.157 | defactinib -0.039 | [6] -0.036 | [2] 0.012 | filanesib 0.052 | alisertib -0.052 | [5] -0.017 | pictilisib 0.289

More results

SYK (UniProt P43405)
inactive: saracatinib -0.151 | Tubastatin A 0.355 | [1] -0.113 | defactinib 0.249 | rucaparib 0.258 | [6] 0.03 | encorafenib 0.112 | [2] -0.012 | [3] 0.085 | zotarolimus 0.066 | idasanutlin 0.25 | [4] 0.204 | lapatinib 0.06

STK35 (UniProt Q8TDR2)
inactive: saracatinib -0.248 | [6] 0.023 | zotarolimus 0.043 | idasanutlin 0.01 | alisertib -0.148 | [4] 0.12 | gefitinib -0.009 | [5] -0.167 | lapatinib -0.135

SUPT7L (UniProt O94864)
inactive: [1] 0.115 | [3] -0.019 | alisertib 0.006 | gefitinib -0.195 | [5] -0.011

SUZ12 (UniProt Q15022)
inactive: saracatinib -0.02 | [6] -0.016 | [3] -0.171 | idasanutlin 0.012 | alisertib 0.087 | [4] -0.037 | gefitinib 0.033 | [5] 0.065 | lapatinib -0.013

SUGP2 (UniProt Q8IX01)
inactive: sotrastaurin 0.011 | filanesib -0.06 | gefitinib 0.083

TADA1 (UniProt Q96BN2)
inactive: [1] -0.016 | [4] 0.071 | lapatinib 0.23

TARDBP (UniProt Q13148)
inactive: sotrastaurin -0.168 | alvocidib 0.17 | Tubastatin A 0.077 | [1] -0.086 | defactinib -0.037 | rucaparib 0.242 | encorafenib 0.083 | [2] -0.01 | [3] -0.156 | filanesib 0.189 | zotarolimus 0.009 | idasanutlin 0.221 | alisertib 0.054 | [4] -0.081 | gefitinib 0.042 | [5] -0.24 | lapatinib 0.105 | pictilisib -0.029

TAF12 (UniProt Q16514)
inactive: sotrastaurin -0.056 | Tubastatin A 0.114 | [1] -0.032 | defactinib 0.023 | rucaparib -0.005 | encorafenib 0.308 | [2] -0.044 | [3] 0.035 | filanesib -0.073 | alisertib -0.027 | [4] 0 | gefitinib 0.015 | [5] -0.019 | lapatinib 0.048 | pictilisib 0.049

SUFU (UniProt Q9UMX1)
inactive: [1] 0.061 | idasanutlin -0.051

SVIP (UniProt Q8NHG7)
inactive: sotrastaurin 0.021 | alvocidib -0.003 | Tubastatin A -0.082 | [1] -0.004 | defactinib -0.059 | rucaparib -0.008 | encorafenib -0.039 | [2] 0.027 | [3] -0.04 | filanesib 0.064 | zotarolimus 0.043 | idasanutlin -0.02 | alisertib -0.038 | [4] 0.083 | gefitinib 0.031 | [5] 0.085 | lapatinib -0.1 | pictilisib 0.032

TAZ (UniProt Q16635)
inactive: saracatinib -0.172 | [6] 0.028 | [4] 0.541 | lapatinib -0.366

TAGLN (UniProt Q01995)
inactive: saracatinib 0.551 | sotrastaurin 0.101 | [1] -0.517 | rucaparib 0.059 | [6] -0.083 | encorafenib 0.1 | [3] -0.011 | filanesib -0.339 | [4] 0.901 | lapatinib -0.2 | pictilisib -0.239

SUSD1 isoform 2 (UniProt Q6UWL2)
inactive: saracatinib -0.085 | alvocidib -0.044 | [1] -0.124 | defactinib -0.081 | rucaparib -0.187 | [6] 0.028 | encorafenib 0.045 | [2] 0.043 | [3] -0.013 | zotarolimus -0.021 | idasanutlin 0.076 | [4] 0.06 | gefitinib -0.11 | lapatinib -0.109 | pictilisib -0.028

STOML1 (UniProt Q9UBI4)
inactive: Tubastatin A 0.125 | defactinib 0.096 | rucaparib -0.003 | encorafenib 0.009 | [2] -0.208

TAB2 (UniProt Q9NYJ8)
inactive: sotrastaurin 0.109 | Tubastatin A 0.249 | defactinib -0.187 | [2] -0.036 | filanesib -0.202

TAF5 (UniProt Q15542)
inactive: [1] 0.416 | defactinib -0.163 | [2] -0.019 | [3] 0.022 | pictilisib 0.158

TBC1D10A (UniProt Q9BXI6)
inactive: saracatinib -0.061 | Tubastatin A 0.086 | defactinib -0.264 | [6] 0 | [2] 0.089 | [3] 0.029 | [4] 0.044 | lapatinib 0.106 | pictilisib -0.006

SYS1 (UniProt Q8N2H4)
inactive: saracatinib 0.233 | [1] 0.071 | rucaparib -0.095 | [6] -0.261 | encorafenib 0.019 | [4] 0.06 | lapatinib 0.093 | pictilisib -0.007

STK3 isoform 2 (UniProt Q13188)
inactive: saracatinib 0.015 | sotrastaurin 0.028 | Tubastatin A -0.018 | defactinib -0.008 | rucaparib 0.035 | [6] -0.009 | encorafenib 0.015 | [2] 0.007 | [3] 0.1 | filanesib -0.046 | zotarolimus 0.007 | idasanutlin 0.031 | [4] 0.064 | gefitinib -0.056 | [5] 0.031 | lapatinib 0.023 | pictilisib -0.056

TATDN1 isoform 2 (UniProt Q6P1N9)
inactive: [1] -0.119 | [4] -0.303 | lapatinib -0.307
